In PMC2474703:
Results are given in words; binding and its absence hold for the method and conditions named. In cells and extracts the contact can be indirect.

Target: T1, Transmembrane and ubiquitin-like domain-containing protein 1 (Tmub1/HOPS) (mouse (endogenous in mouse brain)) (UniProt Q9JMG3)
T1 sequence: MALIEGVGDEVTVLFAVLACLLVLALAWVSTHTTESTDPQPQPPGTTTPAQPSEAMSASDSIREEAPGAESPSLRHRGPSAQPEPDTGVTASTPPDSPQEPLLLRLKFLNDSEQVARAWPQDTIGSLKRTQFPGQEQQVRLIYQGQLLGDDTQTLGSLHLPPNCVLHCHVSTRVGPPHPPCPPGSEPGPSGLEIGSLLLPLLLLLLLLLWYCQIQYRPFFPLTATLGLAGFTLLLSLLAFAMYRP
Test: co-IP; whole mouse brain lysate (20 mM Tris-HCl pH 7.4, 100 mM NaCl, 1% Triton X-100), 10 ug anti-Tmub1/HOPS rabbit polyclonal antibody or control rabbit IgG on 2 mg supernatant, protein G-Sepharose, 4 C; endogenous proteins, detected by blot

binding: no binding
B1: Syntaxin 13 (protein, UniProt Q9ER00 1-274)
chain: MSYGPLDMYRNPGPSGPQPRDFNSIIQTCSGNIQRISQATAQIKNLMSQLGTKQDSSKLQENLQQLQHSTNQLAKETNELLKELGSLPLPLSASEQRQQKLQKERLMNDFSSALNNFQVVQRKVSEKEKESIARARAGSRLSAEDRQREEQLVSFDSHEEWNQMQSQEEEAAITEQDLELIKERETAIRQLEADILDVNQIFKDLAMMIHDQGDLIDSIEANVESSEVHVERATDQLQRAAYYQKKSRKKMCILVLVLSVIVTVLVVVIWVASK
